Laboratory results reported in patent publication US20150037335A1.
No constants are given. Whether binding was seen depends on the method and setting. Some entries that bind do so weakly or less than the wild type. Where a sequence is shown, tags or fusion partners need not be part of it.

Assays:
[1] = target: T1, BDNF (from R and D systems) (Homo sapiens (Human)) (UniProt P23560); test: SPR (Biacore), p75NTR(NBP)-Fc immobilised, BDNF 20 nM injected
T1 sequence: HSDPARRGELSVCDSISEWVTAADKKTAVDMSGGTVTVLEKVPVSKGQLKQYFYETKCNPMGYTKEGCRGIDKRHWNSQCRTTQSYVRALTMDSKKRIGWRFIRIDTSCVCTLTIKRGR

[2] = target: T1, BDNF (from R and D systems) (Homo sapiens (Human)); test: SPR (Biacore), p75NTR(NBP)-Fc immobilised, BDNF injected
[3] = target: T1, BDNF (from R and D systems) (Homo sapiens (Human)); test: SPR (Biacore), p75NTR(NBP)-Fc immobilised on the chip, 20 nM BDNF injected for 30 s at 50 ul/min

binding [1]: binds
binding [2]: binds
binding [3]: binds
B1: p75NTR(NBP)-Fc (p75NTR(NBP) SEQ ID NO. 2 coupled to IgG-Fc SEQ ID NO. 12 using linker SEQ ID NO 17) (Fc fusion)
chain: KEACPTGLYTHSGECCKACNLGEGVAQPCGANQTVCEPCLDSVTFSDVVSATEPCKPCTECVGLQSMSAPCVEADDAVCRCAYGYYQDETTGRCEACRVCEAGSGLVFSCQDKQNTVCEECPDGTYSDEANHVDPCLPCTVCEDTERQLRECTRWADAECEEIPGRWITRSTPPEGSDSTAPSTQEPEAPPEQDLIASTVAGVVTTVMGSSQPVVTRGTTDNGGGGSASTKGPSVFPLAPCSRSTSESTAALGCLVKDYFPEPVTVSWNSGALTSGVHTFPAVLQSSGLYSLSSVVTVTSSNFGTQTYTCNVDHKPSNTKVDKTVERKCCVECPPCPAPPVAGPSVFLFPPKPKDTLMISRTPEVTCVVVDVSHEDPEVQFNWYVDGMEVHNAKTKPREEQFNSTFRVVSVLTVVHQDWLNGKEYKCKVSNKGLPAPIEKTISKTKGQPREPQVYTLPPSREEMTKNQVSLTCLVKGFYPSDIAVEWESNGQPENNYKTTPPMLDSDGSFFLYSKLTVDKSRWQQGNVFSCSVMHEALHNHYTQKSLSLSPGK
